Reference: article PMC4335056

Amino acid sequences for entries named in this document (tags omitted). Residues count along the entry.
UniProt A3KMH1, residues 29-1905: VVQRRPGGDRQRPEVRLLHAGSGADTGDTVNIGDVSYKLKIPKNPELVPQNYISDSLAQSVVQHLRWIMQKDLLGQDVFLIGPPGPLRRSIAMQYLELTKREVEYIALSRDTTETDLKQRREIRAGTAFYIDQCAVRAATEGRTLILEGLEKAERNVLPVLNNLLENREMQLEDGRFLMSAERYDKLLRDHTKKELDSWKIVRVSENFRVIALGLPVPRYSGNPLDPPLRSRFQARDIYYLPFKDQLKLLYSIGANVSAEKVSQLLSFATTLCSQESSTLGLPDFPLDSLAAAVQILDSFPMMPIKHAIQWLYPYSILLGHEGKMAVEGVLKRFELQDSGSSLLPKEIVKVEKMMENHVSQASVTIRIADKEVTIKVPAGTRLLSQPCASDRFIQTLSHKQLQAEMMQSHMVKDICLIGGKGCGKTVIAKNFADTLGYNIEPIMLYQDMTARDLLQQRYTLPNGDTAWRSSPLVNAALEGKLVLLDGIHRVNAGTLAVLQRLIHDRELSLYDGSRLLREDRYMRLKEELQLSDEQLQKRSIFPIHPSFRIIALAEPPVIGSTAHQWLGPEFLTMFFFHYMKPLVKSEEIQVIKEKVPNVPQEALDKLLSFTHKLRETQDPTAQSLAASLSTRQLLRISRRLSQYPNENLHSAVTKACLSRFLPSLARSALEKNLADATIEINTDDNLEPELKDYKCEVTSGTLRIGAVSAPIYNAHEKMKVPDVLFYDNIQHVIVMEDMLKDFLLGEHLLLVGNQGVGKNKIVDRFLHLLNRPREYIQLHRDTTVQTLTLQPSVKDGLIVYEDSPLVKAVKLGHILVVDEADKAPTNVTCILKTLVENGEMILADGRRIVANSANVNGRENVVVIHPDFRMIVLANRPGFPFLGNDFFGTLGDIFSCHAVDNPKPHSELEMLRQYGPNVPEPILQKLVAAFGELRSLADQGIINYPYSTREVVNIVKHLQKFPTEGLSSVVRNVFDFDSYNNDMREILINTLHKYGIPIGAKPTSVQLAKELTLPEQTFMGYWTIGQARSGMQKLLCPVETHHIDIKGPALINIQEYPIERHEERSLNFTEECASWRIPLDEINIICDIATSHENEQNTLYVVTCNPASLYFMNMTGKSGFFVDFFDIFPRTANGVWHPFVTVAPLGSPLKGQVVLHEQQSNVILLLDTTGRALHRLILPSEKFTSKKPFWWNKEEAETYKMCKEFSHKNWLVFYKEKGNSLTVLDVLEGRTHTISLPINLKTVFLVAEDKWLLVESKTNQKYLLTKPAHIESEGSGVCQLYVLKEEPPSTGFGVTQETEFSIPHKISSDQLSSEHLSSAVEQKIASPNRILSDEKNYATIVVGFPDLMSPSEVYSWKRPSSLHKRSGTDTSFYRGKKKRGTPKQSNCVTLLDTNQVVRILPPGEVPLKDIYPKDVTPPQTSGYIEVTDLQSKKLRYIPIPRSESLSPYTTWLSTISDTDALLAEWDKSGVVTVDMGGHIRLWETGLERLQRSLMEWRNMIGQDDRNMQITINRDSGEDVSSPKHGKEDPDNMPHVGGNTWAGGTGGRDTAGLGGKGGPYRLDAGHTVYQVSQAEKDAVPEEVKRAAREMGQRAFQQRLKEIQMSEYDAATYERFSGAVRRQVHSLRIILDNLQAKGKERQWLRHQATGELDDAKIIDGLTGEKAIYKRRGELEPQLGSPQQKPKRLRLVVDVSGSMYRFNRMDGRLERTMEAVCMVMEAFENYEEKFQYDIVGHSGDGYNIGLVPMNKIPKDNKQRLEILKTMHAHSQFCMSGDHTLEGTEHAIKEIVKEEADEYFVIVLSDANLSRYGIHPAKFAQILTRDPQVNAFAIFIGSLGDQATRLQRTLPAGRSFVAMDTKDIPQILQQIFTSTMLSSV
UniProt O00411, residues 42-1230: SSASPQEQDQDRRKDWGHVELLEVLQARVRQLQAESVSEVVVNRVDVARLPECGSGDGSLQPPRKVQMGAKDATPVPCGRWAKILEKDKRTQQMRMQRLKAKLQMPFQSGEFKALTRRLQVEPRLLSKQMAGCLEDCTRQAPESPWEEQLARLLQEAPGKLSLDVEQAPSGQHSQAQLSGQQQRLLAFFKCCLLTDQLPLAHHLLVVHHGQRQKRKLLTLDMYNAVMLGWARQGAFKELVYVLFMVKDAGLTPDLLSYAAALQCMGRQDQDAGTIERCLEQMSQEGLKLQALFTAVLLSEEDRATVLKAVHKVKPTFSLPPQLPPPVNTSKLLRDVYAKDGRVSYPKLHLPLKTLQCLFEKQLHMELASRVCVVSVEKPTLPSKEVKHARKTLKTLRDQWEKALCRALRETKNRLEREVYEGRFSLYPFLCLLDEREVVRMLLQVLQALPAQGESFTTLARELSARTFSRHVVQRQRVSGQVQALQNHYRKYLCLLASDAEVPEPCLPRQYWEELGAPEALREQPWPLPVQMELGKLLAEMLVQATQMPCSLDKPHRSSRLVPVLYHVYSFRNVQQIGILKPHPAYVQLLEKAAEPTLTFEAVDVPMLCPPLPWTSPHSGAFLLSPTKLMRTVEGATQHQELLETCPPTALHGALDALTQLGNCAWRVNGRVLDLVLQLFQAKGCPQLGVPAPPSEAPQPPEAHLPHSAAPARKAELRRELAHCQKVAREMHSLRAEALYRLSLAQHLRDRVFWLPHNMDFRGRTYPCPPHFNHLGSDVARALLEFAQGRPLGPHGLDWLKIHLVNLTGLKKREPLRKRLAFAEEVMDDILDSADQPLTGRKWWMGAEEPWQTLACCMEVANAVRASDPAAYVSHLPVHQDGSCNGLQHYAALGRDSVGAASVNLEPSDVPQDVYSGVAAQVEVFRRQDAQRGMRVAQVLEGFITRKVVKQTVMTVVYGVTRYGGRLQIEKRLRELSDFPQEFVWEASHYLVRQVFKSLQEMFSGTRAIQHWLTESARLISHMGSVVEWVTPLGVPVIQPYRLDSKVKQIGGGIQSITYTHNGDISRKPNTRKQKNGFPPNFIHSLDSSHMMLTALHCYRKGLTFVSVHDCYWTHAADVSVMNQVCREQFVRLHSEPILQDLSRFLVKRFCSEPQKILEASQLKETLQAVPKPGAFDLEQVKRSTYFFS

Key:
[1] = target: T1, TwinkleFLAG (mtDNA helicase Twinkle with a FLAG tag at its C-terminus) (UniProt Q96RR1); test: cross-linking + affinity purification with mass spectrometry; whole cell 1% formaldehyde cross-linking; method B (X-ChIP): RIPA lysis, sonication, RNAse A, DNAse I and Benzonase for 30 min at 37°C, FLAG resin, RIPA washes, 3xFLAG peptide elution; Q Exactive; enriched ≥2 fold by LFQ over TwinkleFLAG -XL and mtLucFLAG +XL; mtDNA-containing cells, levels also compared with ρ° cells
T1 sequence: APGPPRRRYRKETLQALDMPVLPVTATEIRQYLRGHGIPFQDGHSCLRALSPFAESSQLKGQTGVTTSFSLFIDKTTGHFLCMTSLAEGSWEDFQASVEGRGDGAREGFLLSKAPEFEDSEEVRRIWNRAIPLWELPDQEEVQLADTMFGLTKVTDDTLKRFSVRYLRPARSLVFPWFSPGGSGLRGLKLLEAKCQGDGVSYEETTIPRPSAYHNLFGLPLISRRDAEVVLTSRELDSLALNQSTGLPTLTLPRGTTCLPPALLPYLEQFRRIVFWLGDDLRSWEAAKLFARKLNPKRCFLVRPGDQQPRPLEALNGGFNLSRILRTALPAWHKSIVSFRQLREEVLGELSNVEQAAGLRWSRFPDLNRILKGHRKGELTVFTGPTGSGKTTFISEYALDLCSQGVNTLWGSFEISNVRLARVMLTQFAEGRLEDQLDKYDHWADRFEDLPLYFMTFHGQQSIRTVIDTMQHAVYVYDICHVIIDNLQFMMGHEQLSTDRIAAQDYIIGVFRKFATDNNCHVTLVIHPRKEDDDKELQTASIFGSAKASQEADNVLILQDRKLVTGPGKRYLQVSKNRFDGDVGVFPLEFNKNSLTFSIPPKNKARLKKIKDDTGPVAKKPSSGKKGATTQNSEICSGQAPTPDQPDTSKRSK

[2] = target: T1, TwinkleFLAG (mtDNA helicase Twinkle with a FLAG tag at its C-terminus); test: cross-linking + affinity purification with mass spectrometry; whole cell 1% formaldehyde cross-linking; method A: Triton X-100 lysis (50 mM Tris-HCl pH 7.4, 300 mM NaCl, 2 mM EDTA, 1% Triton X-100), sonication, FLAG resin, washes with 800 mM, 50 mM and 150 mM NaCl, 3xFLAG peptide elution; LTQ-FT (3 biological repeats) and Q Exactive (sample 2 in triplicate); enriched ≥2 fold by LFQ over TwinkleFLAG -XL and mtLucFLAG +XL
[3] = target: T2, TwinkleFLAG (mtDNA helicase Twinkle with a FLAG tag at its C-terminus), Q96RR1; test: cross-linking + affinity purification with mass spectrometry; whole cell 1% formaldehyde cross-linking; method A: Triton X-100 lysis (50 mM Tris-HCl pH 7.4, 300 mM NaCl, 2 mM EDTA, 1% Triton X-100), sonication, FLAG resin, washes with 800 mM, 50 mM and 150 mM NaCl, 3xFLAG peptide elution; LTQ-FT (3 biological repeats) and Q Exactive (sample 2 in triplicate); enriched ≥2 fold by LFQ over TwinkleFLAG -XL and mtLucFLAG …; settings: remark: other sources report otherwise
T2 chain: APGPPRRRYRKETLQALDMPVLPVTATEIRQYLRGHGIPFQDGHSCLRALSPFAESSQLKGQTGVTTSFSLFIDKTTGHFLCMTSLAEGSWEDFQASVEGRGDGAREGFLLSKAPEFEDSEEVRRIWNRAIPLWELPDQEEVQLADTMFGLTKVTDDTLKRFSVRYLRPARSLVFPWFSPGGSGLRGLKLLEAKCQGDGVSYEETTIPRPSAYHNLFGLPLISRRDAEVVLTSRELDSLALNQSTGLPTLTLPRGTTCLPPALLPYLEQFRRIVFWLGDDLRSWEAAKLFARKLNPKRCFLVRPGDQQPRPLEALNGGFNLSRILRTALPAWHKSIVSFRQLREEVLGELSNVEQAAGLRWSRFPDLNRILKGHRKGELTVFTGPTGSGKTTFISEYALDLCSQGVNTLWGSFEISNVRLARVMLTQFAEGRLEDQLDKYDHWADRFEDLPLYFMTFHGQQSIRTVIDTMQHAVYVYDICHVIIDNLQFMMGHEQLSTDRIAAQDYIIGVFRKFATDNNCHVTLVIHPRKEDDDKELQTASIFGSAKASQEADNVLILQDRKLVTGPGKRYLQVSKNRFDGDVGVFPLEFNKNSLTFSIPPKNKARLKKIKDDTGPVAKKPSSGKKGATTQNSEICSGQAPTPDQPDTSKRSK

For “von Willebrand factor A domain-containing protein 8 (VWA8) (from UniProt A3KMH1 29-1905)”, which binding [1] is on record?
Its binding is “binds”.

Which binding [2] does the source give for “POLRMT (from UniProt O00411 42-1230) (enzyme)” here?
Its binding is “binds”.

What about the binding [1] of the same molecule?
Its binding is “binds”.

With “small mitoribosomal subunit protein S9 (human (endogenous in HEK293))” as the molecule, how does the binding [1] read?
Its binding is “binds”.

B1: Mitochondrial single stranded DNA binding protein (mtSSB) (protein, UniProt Q04837 17-148)
chain: ESETTTSLVLERSLNRVHLLGRVGQDPVLRQVEGKNPVTIFSLATNEMWRSGDSEVYQLGDVSQKTTWHRISVFRPGLRDVAYQYVKKGSRIYLEGKIDYGEYMDKNNVRRQATTIIADNIIFLSDQTKEKE
For B1, which binding [2] is on record?
The binding was “binds”.

B2: POLG1 (Polymerase gamma), P54098 1-1239 (enzyme)
chain: MSRLLWRKVAGATVGPGPVPAPGRWVSSSVPASDPSDGQRRRQQQQQQQQQQQQQPQQPQVLSSEGGQLRHNPLDIQMLSRGLHEQIFGQGGEMPGEAAVRRSVEHLQKHGLWGQPAVPLPDVELRLPPLYGDNLDQHFRLLAQKQSLPYLEAANLLLQAQLPPKPPAWAWAEGWTRYGPEGEAVPVAIPEERALVFDVEVCLAEGTCPTLAVAISPSAWYSWCSQRLVEERYSWTSQLSPADLIPLEVPTGASSPTQRDWQEQLVVGHNVSFDRAHIREQYLIQGSRMRFLDTMSMHMAISGLSSFQRSLWIAAKQGKHKVQPPTKQGQKSQRKARRGPAISSWDWLDISSVNSLAEVHRLYVGGPPLEKEPRELFVKGTMKDIRENFQDLMQYCAQDVWATHEVFQQQLPLFLERCPHPVTLAGMLEMGVSYLPVNQNWERYLAEAQGTYEELQREMKKSLMDLANDACQLLSGERYKEDPWLWDLEWDLQEFKQKKAKKVKKEPATASKLPIEGAGAPGDPMDQEDLGPCSEEEEFQQDVMARACLQKLKGTTELLPKRPQHLPGHPGWYRKLCPRLDDPAWTPGPSLLSLQMRVTPKLMALTWDGFPLHYSERHGWGYLVPGRRDNLAKLPTGTTLESAGVVCPYRAIESLYRKHCLEQGKQQLMPQEAGLAEEFLLTDNSAIWQTVEELDYLEVEAEAKMENLRAAVPGQPLALTARGGPKDTQPSYHHGNGPYNDVDIPGCWFFKLPHKDGNSCNVGSPFAKDFLPKMEDGTLQAGPGGASGPRALEINKMISFWRNAHKRISSQMVVWLPRSALPRAVIRHPDYDEEGLYGAILPQVVTAGTITRRAVEPTWLTASNARPDRVGSELKAMVQAPPGYTLVGADVDSQELWIAAVLGDAHFAGMHGCTAFGWMTLQGRKSRGTDLHSKTATTVGISREHAKIFNYGRIYGAGQPFAERLLMQFNHRLTQQEAAEKAQQMYAATKGLRWYRLSDEGEWLVRELNLPVDRTEGGWISLQDLRKVQRETARKSQWKKWEVVAERAWKGGTESEMFNKLESIATSDIPRTPVLGCCISRALEPSAVQEEFMTSRVNWVVQSSAVDYLHLMLVAMKWLFEEFAIDGRFCISIHDEVRYLVREEDRYRAALALQITNLLTRCMFAYKLGLNDLPQSVAFFSAVDIDRCLRKEVTMDCKTPSNPTGMERRYGIPQGEALDIYQIIELTKGSLEKRSQPGP
Which binding [3] does the source give for B2 here?
The binding was “binds”.

B3: mitochondrial transcription factor A (TFAM) (protein, UniProt Q00059 43-246)
chain: SSVLASCPKKPVSSYLRFSKEQLPIFKAQNPDAKTTELIRRIAQRWRELPDSKKKIYQDAYRAEWQVYKEEISRFKEQLTPSQIMSLEKEIMDKHLKRKAMTKKKELTLLGKPKRPRSAYNVYVAERFQEAKGDSPQEKLKTVKENWKNLSDSEKELYIQHAKEDETRYHNEMKSWEEQMIEVGRKDLLRRTIKKQRKYGAEEC
For B3, which binding [2] is on record?
The binding was “binds”.

Results are given in words; binding and its absence hold for the method and conditions named. In cells and extracts the contact can be indirect. These calls come from enrichment with a bait or labelling near it, and not all partners need be listed. Tags and fused reporters may be left off the sequences shown.
